Measured values as given in patent US9738636B2, “Fused heterocyclic compounds as selective BMP inhibitors” (Vanderbilt University, priority 2012, dated 2017).
At least one read-out could not be matched to a standard name with certainty.

Tested on: BMP4
Test: BMP4 cell assay (BMP reporter)
Assay type: cell-based
Details: series of scaffold drawing 183; concentration printed in the cell (uM)

Structure (SMILES) | BMP4 Cell IC50 (nM) column: effect in words (potentiates/induces)
Nc1ccc(-c2ccn3c(-c4ccccc4)cnc3c2)cc1 | Actually induces/potentiates at 0.5-10 uM (5- 25-2012)
O=C(Nc1ccc(-c2ccn3c(-c4ccccc4)cnc3c2)cc1)c1ccccn1 | Actually induces/potentiates BMP reproter (5- 31-2012, set 9)
